According to the supplement of paper PMC10849652:
The other results are listed elsewhere or left out.

Chains of the proteins cited; added tags and fusions are not shown. Lines headed by an entry give the natural chain unless they say otherwise; changes in a name come on top.
UniProt Q9H019: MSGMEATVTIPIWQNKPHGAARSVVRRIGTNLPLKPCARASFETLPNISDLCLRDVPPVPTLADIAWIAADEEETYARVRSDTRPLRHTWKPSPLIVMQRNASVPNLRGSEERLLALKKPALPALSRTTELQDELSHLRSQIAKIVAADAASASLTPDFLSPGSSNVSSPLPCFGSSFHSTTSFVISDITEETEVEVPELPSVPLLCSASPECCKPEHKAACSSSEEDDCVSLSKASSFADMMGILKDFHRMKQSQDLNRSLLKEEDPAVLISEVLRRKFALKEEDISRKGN
UniProt O75570: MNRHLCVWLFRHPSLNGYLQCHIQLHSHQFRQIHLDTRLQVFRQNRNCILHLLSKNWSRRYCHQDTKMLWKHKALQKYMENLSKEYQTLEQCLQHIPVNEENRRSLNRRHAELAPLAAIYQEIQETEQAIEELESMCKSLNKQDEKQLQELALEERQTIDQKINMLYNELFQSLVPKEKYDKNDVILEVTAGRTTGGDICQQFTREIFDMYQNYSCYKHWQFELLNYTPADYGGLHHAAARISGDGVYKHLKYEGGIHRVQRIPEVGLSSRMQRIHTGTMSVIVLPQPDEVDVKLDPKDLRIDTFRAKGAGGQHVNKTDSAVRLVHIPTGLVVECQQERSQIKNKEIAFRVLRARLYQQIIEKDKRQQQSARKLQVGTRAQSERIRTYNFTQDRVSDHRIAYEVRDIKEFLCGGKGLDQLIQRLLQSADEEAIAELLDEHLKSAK
UniProt Q6P1R3: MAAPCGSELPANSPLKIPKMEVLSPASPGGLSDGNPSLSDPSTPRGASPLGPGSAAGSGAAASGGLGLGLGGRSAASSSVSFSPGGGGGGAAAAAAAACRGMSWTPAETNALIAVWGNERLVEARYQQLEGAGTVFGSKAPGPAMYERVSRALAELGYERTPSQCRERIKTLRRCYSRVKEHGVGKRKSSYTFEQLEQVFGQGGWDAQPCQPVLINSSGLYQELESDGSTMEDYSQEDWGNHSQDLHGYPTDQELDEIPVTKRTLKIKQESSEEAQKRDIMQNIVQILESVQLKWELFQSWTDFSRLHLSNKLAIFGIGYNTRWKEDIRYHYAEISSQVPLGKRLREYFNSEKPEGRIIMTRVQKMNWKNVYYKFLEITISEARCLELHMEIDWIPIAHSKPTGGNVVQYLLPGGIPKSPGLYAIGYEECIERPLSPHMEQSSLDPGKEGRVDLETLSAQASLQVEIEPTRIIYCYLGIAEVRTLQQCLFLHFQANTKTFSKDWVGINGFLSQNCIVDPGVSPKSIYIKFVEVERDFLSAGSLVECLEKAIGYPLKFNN
UniProt Q15746, whole entry, looked up: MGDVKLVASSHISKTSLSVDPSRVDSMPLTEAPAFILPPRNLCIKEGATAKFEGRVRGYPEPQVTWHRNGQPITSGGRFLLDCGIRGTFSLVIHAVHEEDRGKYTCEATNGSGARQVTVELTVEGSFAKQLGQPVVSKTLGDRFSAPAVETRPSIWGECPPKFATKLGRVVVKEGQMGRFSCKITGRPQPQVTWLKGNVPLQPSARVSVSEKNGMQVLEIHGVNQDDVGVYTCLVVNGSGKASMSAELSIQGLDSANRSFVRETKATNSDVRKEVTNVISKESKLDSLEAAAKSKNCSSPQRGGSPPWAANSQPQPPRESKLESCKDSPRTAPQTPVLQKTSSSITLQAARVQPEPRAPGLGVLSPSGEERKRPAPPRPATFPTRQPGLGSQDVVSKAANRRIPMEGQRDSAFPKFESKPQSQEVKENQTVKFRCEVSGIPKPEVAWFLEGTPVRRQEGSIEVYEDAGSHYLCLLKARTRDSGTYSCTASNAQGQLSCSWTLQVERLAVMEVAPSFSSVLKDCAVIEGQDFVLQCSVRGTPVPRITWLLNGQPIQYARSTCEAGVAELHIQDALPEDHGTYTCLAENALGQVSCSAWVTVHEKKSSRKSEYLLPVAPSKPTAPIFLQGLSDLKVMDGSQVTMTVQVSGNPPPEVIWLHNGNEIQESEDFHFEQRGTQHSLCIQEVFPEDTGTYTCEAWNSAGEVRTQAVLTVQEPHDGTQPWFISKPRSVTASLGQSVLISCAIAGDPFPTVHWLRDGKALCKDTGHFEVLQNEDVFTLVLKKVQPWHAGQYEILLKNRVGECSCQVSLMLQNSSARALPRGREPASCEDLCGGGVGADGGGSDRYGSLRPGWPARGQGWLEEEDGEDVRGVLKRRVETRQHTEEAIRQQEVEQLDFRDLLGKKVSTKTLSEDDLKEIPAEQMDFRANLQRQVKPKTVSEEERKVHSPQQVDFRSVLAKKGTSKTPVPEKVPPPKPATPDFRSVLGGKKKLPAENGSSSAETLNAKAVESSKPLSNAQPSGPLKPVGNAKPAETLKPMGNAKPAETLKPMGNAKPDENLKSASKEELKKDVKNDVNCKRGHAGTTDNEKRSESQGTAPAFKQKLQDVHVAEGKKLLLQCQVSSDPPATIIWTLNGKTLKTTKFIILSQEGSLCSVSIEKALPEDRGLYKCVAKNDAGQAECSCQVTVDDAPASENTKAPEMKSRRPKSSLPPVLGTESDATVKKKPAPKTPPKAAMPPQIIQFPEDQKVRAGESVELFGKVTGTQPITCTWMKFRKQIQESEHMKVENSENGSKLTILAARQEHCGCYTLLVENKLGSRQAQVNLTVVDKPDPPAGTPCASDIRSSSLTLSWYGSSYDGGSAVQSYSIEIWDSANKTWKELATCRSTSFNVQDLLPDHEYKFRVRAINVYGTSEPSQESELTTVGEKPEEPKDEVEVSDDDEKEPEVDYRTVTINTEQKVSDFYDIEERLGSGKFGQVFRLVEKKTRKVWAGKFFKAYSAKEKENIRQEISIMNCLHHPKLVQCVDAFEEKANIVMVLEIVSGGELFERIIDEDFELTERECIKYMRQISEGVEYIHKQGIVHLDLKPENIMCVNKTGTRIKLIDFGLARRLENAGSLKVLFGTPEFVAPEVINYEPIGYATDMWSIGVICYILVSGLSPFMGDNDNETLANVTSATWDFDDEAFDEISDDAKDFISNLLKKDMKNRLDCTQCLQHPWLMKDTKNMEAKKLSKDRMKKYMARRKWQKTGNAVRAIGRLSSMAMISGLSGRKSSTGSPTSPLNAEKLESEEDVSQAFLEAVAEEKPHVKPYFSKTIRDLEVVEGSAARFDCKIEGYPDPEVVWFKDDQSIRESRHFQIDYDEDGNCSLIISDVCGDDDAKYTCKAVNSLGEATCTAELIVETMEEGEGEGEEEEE
UniProt Q9H903: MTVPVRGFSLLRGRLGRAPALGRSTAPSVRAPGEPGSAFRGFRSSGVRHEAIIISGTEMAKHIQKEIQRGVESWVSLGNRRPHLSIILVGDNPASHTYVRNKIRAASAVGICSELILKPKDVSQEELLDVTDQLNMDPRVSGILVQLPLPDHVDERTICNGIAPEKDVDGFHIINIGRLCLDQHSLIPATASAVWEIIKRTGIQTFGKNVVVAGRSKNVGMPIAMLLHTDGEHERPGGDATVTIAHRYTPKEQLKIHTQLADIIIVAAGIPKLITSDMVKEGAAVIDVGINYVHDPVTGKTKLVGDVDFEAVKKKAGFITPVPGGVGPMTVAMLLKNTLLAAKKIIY
UniProt Q9H2K0, whole entry, looked up: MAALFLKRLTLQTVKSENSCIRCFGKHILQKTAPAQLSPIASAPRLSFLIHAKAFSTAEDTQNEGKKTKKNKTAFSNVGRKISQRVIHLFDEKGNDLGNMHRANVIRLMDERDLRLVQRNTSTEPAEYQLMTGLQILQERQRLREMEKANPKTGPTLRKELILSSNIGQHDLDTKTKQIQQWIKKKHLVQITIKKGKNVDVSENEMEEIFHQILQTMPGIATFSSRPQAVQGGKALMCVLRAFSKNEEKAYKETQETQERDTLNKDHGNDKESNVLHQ
UniProt Q96QG7: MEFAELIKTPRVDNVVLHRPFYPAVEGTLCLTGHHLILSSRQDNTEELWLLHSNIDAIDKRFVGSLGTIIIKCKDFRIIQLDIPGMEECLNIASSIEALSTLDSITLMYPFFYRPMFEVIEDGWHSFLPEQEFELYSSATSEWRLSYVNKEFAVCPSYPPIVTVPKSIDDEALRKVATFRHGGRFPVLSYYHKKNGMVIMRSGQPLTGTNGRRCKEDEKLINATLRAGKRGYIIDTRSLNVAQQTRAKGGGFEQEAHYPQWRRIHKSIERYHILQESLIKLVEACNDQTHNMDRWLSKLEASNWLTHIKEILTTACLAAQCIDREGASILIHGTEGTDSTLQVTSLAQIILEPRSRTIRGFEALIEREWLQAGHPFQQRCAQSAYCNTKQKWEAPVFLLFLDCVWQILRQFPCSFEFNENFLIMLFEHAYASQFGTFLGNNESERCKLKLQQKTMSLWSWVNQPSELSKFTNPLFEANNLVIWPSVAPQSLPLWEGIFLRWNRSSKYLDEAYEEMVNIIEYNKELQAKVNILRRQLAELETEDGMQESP
UniProt Q9P0P8: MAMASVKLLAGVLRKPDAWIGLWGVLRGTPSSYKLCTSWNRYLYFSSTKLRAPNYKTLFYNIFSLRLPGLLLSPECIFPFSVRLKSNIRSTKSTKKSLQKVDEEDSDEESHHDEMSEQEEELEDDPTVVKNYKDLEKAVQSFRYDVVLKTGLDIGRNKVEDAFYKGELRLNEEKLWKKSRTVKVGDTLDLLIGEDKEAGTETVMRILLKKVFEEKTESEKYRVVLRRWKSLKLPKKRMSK
UniProt O43312: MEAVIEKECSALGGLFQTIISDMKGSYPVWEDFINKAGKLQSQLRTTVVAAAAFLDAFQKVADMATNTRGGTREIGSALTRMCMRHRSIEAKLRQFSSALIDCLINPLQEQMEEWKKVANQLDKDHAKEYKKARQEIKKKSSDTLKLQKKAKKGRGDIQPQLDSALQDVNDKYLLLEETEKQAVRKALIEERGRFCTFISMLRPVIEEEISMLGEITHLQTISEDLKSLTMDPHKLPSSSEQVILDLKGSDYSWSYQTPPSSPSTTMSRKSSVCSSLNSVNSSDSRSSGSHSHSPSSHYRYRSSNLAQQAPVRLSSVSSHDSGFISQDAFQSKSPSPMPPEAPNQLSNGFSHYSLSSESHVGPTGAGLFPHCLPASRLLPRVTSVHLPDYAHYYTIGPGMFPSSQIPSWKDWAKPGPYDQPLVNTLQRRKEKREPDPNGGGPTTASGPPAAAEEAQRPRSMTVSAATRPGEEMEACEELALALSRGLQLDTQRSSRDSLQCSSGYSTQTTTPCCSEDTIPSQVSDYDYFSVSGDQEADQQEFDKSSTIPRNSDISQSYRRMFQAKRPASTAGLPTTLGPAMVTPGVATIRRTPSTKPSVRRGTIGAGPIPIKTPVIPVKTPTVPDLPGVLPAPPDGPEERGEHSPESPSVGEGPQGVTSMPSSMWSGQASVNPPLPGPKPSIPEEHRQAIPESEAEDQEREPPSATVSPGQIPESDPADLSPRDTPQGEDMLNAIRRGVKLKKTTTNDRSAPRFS
UniProt Q93083: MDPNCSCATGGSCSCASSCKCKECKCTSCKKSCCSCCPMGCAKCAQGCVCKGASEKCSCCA
UniProt P03891, whole entry, looked up: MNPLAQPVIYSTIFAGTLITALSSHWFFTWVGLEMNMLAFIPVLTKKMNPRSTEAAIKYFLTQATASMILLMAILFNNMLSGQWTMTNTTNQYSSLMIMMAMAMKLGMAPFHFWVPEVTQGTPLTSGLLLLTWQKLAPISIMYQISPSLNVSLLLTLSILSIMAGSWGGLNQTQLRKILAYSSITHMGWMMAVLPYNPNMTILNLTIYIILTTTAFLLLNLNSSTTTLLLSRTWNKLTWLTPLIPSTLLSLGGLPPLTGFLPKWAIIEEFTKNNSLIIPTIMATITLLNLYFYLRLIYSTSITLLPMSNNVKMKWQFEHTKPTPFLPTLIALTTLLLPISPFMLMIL
UniProt Q9BT17: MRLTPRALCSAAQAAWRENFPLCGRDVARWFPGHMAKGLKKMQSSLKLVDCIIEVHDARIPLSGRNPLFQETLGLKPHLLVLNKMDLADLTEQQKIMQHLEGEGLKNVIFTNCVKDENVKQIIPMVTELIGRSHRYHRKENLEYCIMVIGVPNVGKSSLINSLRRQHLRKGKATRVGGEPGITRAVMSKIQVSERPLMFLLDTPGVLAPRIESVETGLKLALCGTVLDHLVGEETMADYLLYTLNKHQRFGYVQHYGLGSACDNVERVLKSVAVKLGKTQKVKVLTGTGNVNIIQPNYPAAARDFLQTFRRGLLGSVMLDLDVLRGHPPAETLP
UniProt Q9UGC7: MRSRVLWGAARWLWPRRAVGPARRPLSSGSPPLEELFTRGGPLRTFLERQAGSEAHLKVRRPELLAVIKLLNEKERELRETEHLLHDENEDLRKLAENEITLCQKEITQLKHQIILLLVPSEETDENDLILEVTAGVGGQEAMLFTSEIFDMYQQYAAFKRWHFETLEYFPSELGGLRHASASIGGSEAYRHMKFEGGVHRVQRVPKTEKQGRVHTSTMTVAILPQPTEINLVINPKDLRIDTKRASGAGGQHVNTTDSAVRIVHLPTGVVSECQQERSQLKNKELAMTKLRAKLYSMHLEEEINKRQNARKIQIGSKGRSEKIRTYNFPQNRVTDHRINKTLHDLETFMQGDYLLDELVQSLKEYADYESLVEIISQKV

Compound: NC(=O)Nc1cc(-c2cccc(F)c2)sc1C(=O)N[C@H]1CCCNC1
Experiment: log2 fold change, soluble protein after heating vs DMSO (PISA); higher = thermal stabilisation; K562 cells, 10 uM, 30 min; active = over 0.2 and 3.5 SD of the protein, either way, in both replicates (recomputed)
Method in brief: (§1)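 K562 cells at 2×10^6 cells/mL were treated for 30 min with 10 μM compound, and aliquots were heated for 3 min over 48°C-58°C before pooling. Extraction used PBS with 0.5% NP-40 at 4°C, and soluble protein was the supernatant after 21,000xg for 90 min, measured by TMTpro 16plex LC-MS/MS with channel sums equalised. Thermal stability values, relative to control samples and from duplicates, are log2 fold changes.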

Target | log2 fold change
MTERF3 (UniProt Q96E29) | inactive: 0.058
MTFR1L (UniProt Q9H019) | inactive: -0.069
MRPS14 (UniProt O60783) | inactive: -0.012
MYO9A isoform 4 (UniProt B2RTY4) | inactive: -0.194
MYH15 (UniProt Q9Y2K3) | inactive: 0.152
MTIF2 (UniProt P46199) | inactive: -0.003
MYNN (UniProt Q9NPC7) | inactive: -0.244
MTRF1 (UniProt O75570) | inactive: 0.063
MSANTD2 (UniProt Q6P1R3) | inactive: -0.041
MYLK (UniProt Q15746) | inactive: -0.063
MTHFD2L (UniProt Q9H903) | inactive: -0.086
MTMR4 (UniProt Q9NYA4) | inactive: -0.056
MTA3 (UniProt Q9BTC8) | inactive: 0.066
MTAP isoform 2 (UniProt Q13126) | inactive: 0.145
MUC7 (UniProt Q8TAX7) | inactive: 0.863
MRPS36 (UniProt D6R941) | inactive: -0.332
MTIF3 (UniProt Q9H2K0) | inactive: 0.082
MTFMT (UniProt Q96DP5) | inactive: -0.463
MTMR10 (UniProt Q9NXD2) | inactive: -0.057
MYO18B isoform 3 (UniProt Q8IUG5) | inactive: -0.475

Compound: NC(=O)c1cnc(N[C@@H]2CCCC[C@@H]2N)nc1Nc1cccc(-n2nccn2)c1
Experiment: as above
Method in brief: as §1

Target | log2 fold change
MYO19 (UniProt Q96H55) | inactive: -0.112
MTMR9 (UniProt Q96QG7) | inactive: -0.114
MTFR1L (UniProt Q9H019) | inactive: -0.079
MTRES1 (UniProt Q9P0P8) | inactive: 0.098
MRPS14 (UniProt O60783) | inactive: -0.043
MTSS1 isoform 5 (UniProt O43312) | inactive: -0.094
MYO9A isoform 4 (UniProt B2RTY4) | inactive: -0.16
MT1L (UniProt Q93083) | inactive: -0.086
MTHFSD (UniProt Q2M296) | inactive: 0.035
MTRF1 (UniProt O75570) | inactive: -0.105
MT-ND2 (UniProt P03891) | inactive: 0.146
MTG1 (UniProt Q9BT17) | inactive: 0.113
MTHFD1L (UniProt B7ZM99) | inactive: -0.057
MTRF1L (UniProt Q9UGC7) | inactive: 0.029
MYBBP1A isoform 2 (UniProt Q9BQG0) | inactive: -0.217
MTIF3 (UniProt Q9H2K0) | inactive: 0.17
MYO18B isoform 3 (UniProt Q8IUG5) | inactive: -0.417

Compound: NC1(c2ccc(-c3nc4ccn5c(=O)[nH]nc5c4cc3-c3ccccc3)cc2)CCC1
Experiment: as above
Method in brief: as §1

Target | log2 fold change
MTERF3 (UniProt Q96E29) | inactive: 0.112
MTMR9 (UniProt Q96QG7) | inactive: -0.076
MTRES1 (UniProt Q9P0P8) | inactive: -0.125
MYL3 (UniProt P08590) | inactive: 0.102
MTSS1 isoform 5 (UniProt O43312) | inactive: 0.595
MYH15 (UniProt Q9Y2K3) | inactive: -0.267
MT1L (UniProt Q93083) | inactive: -0.012
MTHFSD (UniProt Q2M296) | inactive: -0.03
MT-ND2 (UniProt P03891) | inactive: -0.128
MYH2 (UniProt Q9UKX2) | inactive: -0.042
MTG1 (UniProt Q9BT17) | inactive: -0.067
MTHFD1L (UniProt B7ZM99) | inactive: -0.136
MYLK (UniProt Q15746) | inactive: -0.064
MTRF1L (UniProt Q9UGC7) | inactive: -0.074
MTHFD2L (UniProt Q9H903) | inactive: -0.15
MYH6 (UniProt P13533) | inactive: 0.088
MTURN (UniProt Q8N3F0) | inactive: -0.083
MTMR10 (UniProt Q9NXD2) | inactive: 0.033

Compound: NCC(=O)Nc1ccc(-n2nc(C(F)(F)F)cc2-c2ccc3c(ccc4ccccc43)c2)cc1
Experiment: as above
Method in brief: as §1

Target | log2 fold change
MYO19 (UniProt Q96H55) | inactive: 0.051
MTMR9 (UniProt Q96QG7) | inactive: 0.024
MTFR1L (UniProt Q9H019) | inactive: -0.005
MRPS14 (UniProt O60783) | inactive: -0.092
MTSS1 isoform 5 (UniProt O43312) | inactive: 0.018
MYO9A isoform 4 (UniProt B2RTY4) | inactive: -0.054
MT-ND2 (UniProt P03891) | inactive: 0.036
MSANTD2 (UniProt Q6P1R3) | inactive: -0.065
MTG1 (UniProt Q9BT17) | inactive: 0.16
MTHFD1L (UniProt B7ZM99) | inactive: -0.07
MYLK (UniProt Q15746) | inactive: -0.21
MTRF1L (UniProt Q9UGC7) | inactive: 0.108
MTHFD2L (UniProt Q9H903) | inactive: -0.043
MTURN (UniProt Q8N3F0) | inactive: 0.025
MYO1B (UniProt O43795) | inactive: -0.192
MTIF3 (UniProt Q9H2K0) | inactive: 0.249
MTFMT (UniProt Q96DP5) | inactive: 0.028
